# PubChem BioAssay AID1259254 | NCATS, 2017
# Aim: 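Gene knock-downs that lead to re-replication, shown by excess G2 DNA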 (primary screen)
# Cell system: human HCT116 colorectal cancer cells
# Knock-down reagent: single siRNA against human genes
# Time to read-out: 3 days
# Measured: 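Imaged Hoechst DNA stain sorts each cell into a cycle phase by DNA amount; per plate, G2 fraction set to 0% for non-targeting and 100% for GMNN siRNA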
# Reading the numbers: G2 robust z-score: higher = more G2 cells, more excess DNA replication
# Rule for the call: 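An siRNA counts as active if its G2 robust z-score lies at least 5 MADs above the screen median; here such calls match roughly 38% of GMNN control or more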
# Here is a random part of about 59,000 reagents. About 1,550 of them (2.6%) count as active. 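G2 share is only a proxy for re-replication; each gene was hit by three separate siRNAs, and active genes were retested.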 Reagents against one gene are numbered here. Further read-outs or replicates are left out here. Not stated in the record: the amount of reagent.
G2 robust z-score,activity call,gene,reagent
-0.845,inactive,MRPS18B,1
-1.29,inactive,MRPS18B,2
-0.377,inactive,MRPS18B,3
-1.13,inactive,CD40,1
2.31,inactive,CD40,2
-0.487,inactive,CD40,3
0.72,inactive,CDO1,1
0.492,inactive,CDO1,2
1.93,inactive,CDO1,3
0.22,inactive,C4orf54,1
0.583,inactive,C4orf54,2
0.639,inactive,C4orf54,3
1.94,inactive,ZSCAN5B,1
1.35,inactive,ZSCAN5B,2
0.587,inactive,ZSCAN5B,3
0.789,inactive,CLIC2,1
0.095,inactive,CLIC2,2
-0.397,inactive,CLIC2,3
-0.706,inactive,HDDC2,1
1.8,inactive,HDDC2,2
-0.952,inactive,HDDC2,3
-0.949,inactive,DCAKD,1
-1.36,inactive,DCAKD,2
-0.301,inactive,DCAKD,3
-0.379,inactive,EEF1A1,1
-0.101,inactive,EEF1A1,2
0.343,inactive,EEF1A1,3
-0.434,inactive,HOXB2,1
-0.947,inactive,HOXB2,2
1.09,inactive,HOXB2,3
4.38,inactive,DDX42,1
0.129,inactive,DDX42,2
3.36,inactive,DDX42,3
-0.988,inactive,LAYN,1
-0.337,inactive,LAYN,2
-0.973,inactive,LAYN,3
-0.432,inactive,KRTAP12-3,1
-0.282,inactive,KRTAP12-3,2
6.21,active,KRTAP12-3,3
1.02,inactive,SLC5A9,1
0.495,inactive,SLC5A9,2
-0.193,inactive,SLC5A9,3
0.548,inactive,IFT38,1
5.51,active,IFT38,2
0.896,inactive,IFT38,3
-0.108,inactive,HSD3B7,1
2.22,inactive,HSD3B7,2
-1.61,inactive,HSD3B7,3
0.663,inactive,BPIFA2,1
1.43,inactive,BPIFA2,2
-0.756,inactive,BPIFA2,3
0.476,inactive,ADAMTS4,1
-0.768,inactive,ADAMTS4,2
-0.573,inactive,ADAMTS4,3
-0.78,inactive,CCDC197,1
0.137,inactive,CCDC197,2
-1.03,inactive,CCDC197,3
0.253,inactive,GTF2I,1
3.56,inactive,GTF2I,2
1.29,inactive,GTF2I,3
-0.446,inactive,GTF2I,4
-1.06,inactive,GTF2I,5
0.588,inactive,GTF2I,6
0.162,inactive,LINC00381,1
0.249,inactive,LINC00381,2
2.33,inactive,LINC00381,3
0.0571,inactive,DIRAS3,1
0.56,inactive,DIRAS3,2
-0.0439,inactive,DIRAS3,3

Copied from the listing for reference:
G2 robust z-score,activity call,gene,reagent
-0.108,inactive,HSD3B7,1
2.22,inactive,HSD3B7,2
-1.61,inactive,HSD3B7,3
0.663,inactive,BPIFA2,1
1.43,inactive,BPIFA2,2
-0.756,inactive,BPIFA2,3
0.476,inactive,ADAMTS4,1
-0.768,inactive,ADAMTS4,2
-0.573,inactive,ADAMTS4,3
